Results are given in words; binding and its absence hold for the method and conditions named. Binding can be weak; no strength is given. Tags and fused reporters may be left off the sequences shown.
Target: T1, GAL4 BD-Myc-NleE (enteropathogenic E. coli (EPEC 2348/69)) (UniProt B7UI22)
T1 sequence: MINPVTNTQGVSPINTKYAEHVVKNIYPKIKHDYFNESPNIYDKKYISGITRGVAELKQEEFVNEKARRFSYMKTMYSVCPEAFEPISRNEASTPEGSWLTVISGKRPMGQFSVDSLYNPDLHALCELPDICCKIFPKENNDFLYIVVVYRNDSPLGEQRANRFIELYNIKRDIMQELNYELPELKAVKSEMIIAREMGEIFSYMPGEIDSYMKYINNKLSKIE
Test: two-hybrid; yeast strain AH109 transformed with plasmid combinations (bait+prey): GAL4 BD-Myc-NleE with GAL4 AD-fused TAB3 truncations

For “TAB3ΔNZF (GAL4 AD fusion) (human) (domain or fragment)”, the binding was “binds”.

Reference: publication PMC4239114
